Reference: PMC8514468
Results are given in words; binding and its absence hold for the method and conditions named. In cells and extracts the contact can be indirect. Some results given as binding are weak or reduced against the parent protein; the word gives no strength.

How the values were obtained:
[1] = target: T1, Sirt1 (mouse (endogenous in C2C12)) (UniProt Q923E4); assay: co-IP; c2MP cytoplasmic fractions; protein A/G magnetic beads with 10 ug p107-SD9, Sirt1-B7 or IgG-D7 antibody; lysates incubated overnight 4 °C; Western blot for p107 (13354-1-AP) or Sirt1 (D1D7); reciprocal
T1 sequence: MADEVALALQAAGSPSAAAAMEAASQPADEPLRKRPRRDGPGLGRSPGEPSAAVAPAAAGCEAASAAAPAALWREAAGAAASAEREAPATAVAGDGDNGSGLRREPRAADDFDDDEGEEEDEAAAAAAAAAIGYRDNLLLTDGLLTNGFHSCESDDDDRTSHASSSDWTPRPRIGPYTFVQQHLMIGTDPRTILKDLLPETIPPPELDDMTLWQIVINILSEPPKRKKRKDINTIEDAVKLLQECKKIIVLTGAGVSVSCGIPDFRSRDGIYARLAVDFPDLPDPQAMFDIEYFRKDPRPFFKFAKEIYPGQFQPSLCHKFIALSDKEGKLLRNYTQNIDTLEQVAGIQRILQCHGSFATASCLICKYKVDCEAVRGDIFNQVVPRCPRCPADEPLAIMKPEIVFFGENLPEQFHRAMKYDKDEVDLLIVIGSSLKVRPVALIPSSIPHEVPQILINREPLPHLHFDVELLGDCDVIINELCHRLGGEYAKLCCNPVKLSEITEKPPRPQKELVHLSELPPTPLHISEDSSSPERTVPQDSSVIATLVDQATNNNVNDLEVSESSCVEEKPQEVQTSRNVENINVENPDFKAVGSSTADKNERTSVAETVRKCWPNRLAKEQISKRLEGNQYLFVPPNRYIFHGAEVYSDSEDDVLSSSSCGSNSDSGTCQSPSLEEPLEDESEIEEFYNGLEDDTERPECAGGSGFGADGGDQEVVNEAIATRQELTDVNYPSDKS

[2] = target: T1, Sirt1 (mouse (endogenous in C2C12)); assay: co-IP; c2MP whole cell lysates, pre-cleared; protein A/G agarose beads with 5 ug p107-C18, Sirt1-B7 or IgG-D7 antibody, overnight 4 °C; washed 3 times with 50 mM HEPES pH 7.0, 250 mM NaCl, 0.1% Np-40; Western blot for p107-SD9 or Sirt1-D1D7; reciprocal

binding [1]: binds
binding [2]: binds
B1: p107 (Rbl1) (protein, UniProt Q64701 1-1063)
chain: MFEDEPHAEGAAAVAAAREALQALCQELNLDEGSAAEALDDFTAIRGNYSLEGEVIHWLACSLYVACRKSIIPTVGKGVMEGNCVSLTRILRSAKLSLIQFFSKMKKWMDMSNLPQEFRERIERLERNFEVSTVIFKKFEPIFLDIFQNPYEEPPKLPRSRKQRRIPCSVKDLFNFCWTLFVYTKGNFRMIGDDLVNSYHLLLCCLDLIFANAIMCPNRRDLLNPSFKGLPSDFHAPDFKAAEEPPCIIAVLCDLHDGLLVEAKGIKEHYFKPYISKLFDKKILKGECLLDLSSFTDNSKAVNKEYEEYVLTVGDFDERIFLGADAEEEIGTPRKFTADTPFGKLTSQASVECNLQQHFEKKRSFAPSTPLTGRRYLQEKEAVTTPVASATQSVSRLQSIVAGLKSAPSEQLLNIFESCMRNPMGNIIKIVKGIGETFCQHYTQSTDKQPGSHIDFAVNRLKLAEILYYKILETIMVQETRRLHGMDMSVLLEQDIFHKSLMACCLEIVLFAYSSPRTFPWIIEVLDLQPFYFYKVIEVVIRSEEGLSRDMVKHLNSIEEQILESLAWTNNSALWEALHASANRVPSCEEVIFPNNFEIGNGGNVQGHLPMMPMSPIIHPRVKEVRTDSGSLRQDMQPLSPISVHERYSSPAAGSAKRRLFGDDPPKDTLMDKIMAEGTKLKIAPSSVTAESLSISPGQALLTMATTTVTGTTGRKVTVPLHGIANDAGEITLVPISMNPTQESTAESPVSLTAQSLIGTSPKQTHLTKAQDAHLTGVSKPKRTGSLALFYRKVYHLASVRLRDLCLKLDVSNELRRKIWTCFEFTLVHCPDLMKDRHLDQLLLCAFYIMAKVTKEERTFQEIMKSYRNQPQANSHVYRSVLLKSIPGGVVVYNGDCEMTDGDIEDATKTPNCSSEPVKEERGDLIKFYNTVYVGRVKSFALKYDLSNQDHIMDAPPLSPFPHIKQQPGSPRRISQQHSLYVSPHKNGAGLTPRSALLYKFNGSPSKSLKDINNMIRQGEQKTKKRVIAISGDADSPAKRLCQENDDVLLKRLQDVVSERANH
